Taken from: PubChem BioAssay AID686943 (Drosophila RNAi Screening Center, 2013)
Assay: 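Knockdowns that increase or decrease active ERK after insulin receptor stimulation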 (primary screen). Cell system: Drosophila S2R+ haemocyte-like cells expressing YFP-tagged ERK (Rolled). Knock-down reagent: long dsRNA against Drosophila genes. Conditions: insulin stimulation versus unstimulated cells; dose and duration not given. Read-out: 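Antibody staining for doubly phosphorylated ERK divided by ERK-YFP signal, as plate z-scores, in insulin-treated and untreated cells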. Direction: replicate 1, z-score of dpERK with insulin and replicate 2, z-score of dpERK with insulin: higher = more active ERK per ERK-YFP after insulin; replicate 1, z-score of dpERK under basal conditions: higher = more basal active ERK per ERK-YFP; replicate 1, z-score of ERK-YFP with insulin: higher = more YFP-tagged ERK signal.
In all, the deposit lists about 23,000 reagents; this is a random part of those with a known target gene and a result. 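Extra replicates exist only for a retested subset of genes; insulin dose and duration not given; both raised and lowered dpERK matter.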 Reagents against one gene are numbered here. No sequences are given here. Not stated in the record: the amount of reagent, the time to read-out.

predicted target	reagent no.	replicate 1, z-score of dpERK with insulin	replicate 2, z-score of dpERK with insulin	replicate 1, z-score of dpERK under basal conditions	replicate 1, z-score of ERK-YFP with insulin
CG6153	1	0.64	0.13	0.13	-0.76
CG14089	1	-0.39	0.65	-0.38	0.8
RpL10Ab	1	-3.05	-1.36	-1.33	-2.76
mamo	1	-5.81	-2.96	-3.23	-2.62
mamo	2	0.14	-0.7	1.38	0.38
mamo	3	0.52	0.58	0.14	0.38
mamo	4	1.17	-1.31	1.84	-0.2
mamo	5	1.17	0.12	0.43	-0.42

3 entries already listed, sorted by “replicate 1, z-score of dpERK under basal conditions”, ascending:
predicted target	reagent no.	replicate 1, z-score of dpERK with insulin	replicate 2, z-score of dpERK with insulin	replicate 1, z-score of dpERK under basal conditions	replicate 1, z-score of ERK-YFP with insulin
mamo	3	0.52	0.58	0.14	0.38
mamo	2	0.14	-0.7	1.38	0.38
mamo	4	1.17	-1.31	1.84	-0.2

More results follow:
predicted target	reagent no.	replicate 1, z-score of dpERK with insulin	replicate 2, z-score of dpERK with insulin	replicate 1, z-score of dpERK under basal conditions	replicate 1, z-score of ERK-YFP with insulin
Rpt1	1	-3.35	-4.74	-4.34	0.16
Pink1	1	0.28	1.09	-0.6	0.19
BomBc3	1	0.46	-0.47	0.55	0.63
CG33144	1	-0.17	1.32	0.91	0.66
CG33144	2	-0.52	-0.63	-0.21	-0.06
Gr8a	1	-0.04	0.7	0.73	0.19
Dnaaf6	1	0.37	-1.23	-0.08	-0.31
Naa20B	1	-0.03	0.36	0.31	1.39
alpha-Est6	1	0.4	0.06	0.57	-2.02
mRpL47	1	-1.74	-0.19	-0.67	0.65
cGlr2	1	0	-1.89	0.26	-3.89
CG30344	1	-0.18	0.77	-0.43	0.36
Irbp18	1	0.48	-0.05	-0.49	0.03
Kdm4B	1	1.05	1.09	1.71	-0.64
CG7747	1	0.31	0.18	0.88	0.15
